The subject of this series is BAF complex subunits and histone proteins. Kind of series: Mass spectrometry proteomics of purified HA-SS18 WT and HA-SS18-SSX1 complexes (Tables 5A-5E). On the set-up: species or system human. The conditions noted are these: HEK-293T; for Total (total peptides) / Unique (unique peptides): HA-SS18SSX1 purification, NE (soluble nuclear extract) fraction, peptides per identified protein.

Setting [1] is: HA-SS18WT_NE_peptides: proteins co-purified with HA-SS18 WT from nuclear extract (NE).
[2] abbreviates: HA-SS18WT_NE_peptides: HA-SS18 WT complexes purified from nuclear extract (NE), label = protein identified (Gene Symbol).

B1: DNAJC10 (protein, UniProt Q8IXB1 33-793, looked up)
DnaJ homolog subfamily C …: DQDFYSLLGVSKTASSREIRQAFKKLALKLHPDKNPNNPNAHGDFLKINRAYEVLKDEDLRKKYDKYGEKGLEDNQGGQYESWNYYRYDFGIYDDDPEIITLERREFDAAVNSGELWFVNFYSPGCSHCHDLAPTWRDFAKEVDGLLRIGAVNCGDDRMLCRMKGVNSYPSLFIFRSGMAPVKYHGDRSKESLVSFAMQHVRSTVTELWTGNFVNSIQTAFAAGIGWLITFCSKGGDCLTSQTRLRLSGMLDGLVNVGWMDCATQDNLCKSLDITTSTTAYFPPGATLNNKEKNSILFLNSLDAKEIYLEVIHNLPDFELLSANTLEDRLAHHRWLLFFHFGKNENSNDPELKKLKTLLKNDHIQVGRFDCSSAPDICSNLYVFQPSLAVFKGQGTKEYEIHHGKKILYDILAFAKESVNSHVTTLGPQNFPANDKEPWLVDFFAPWCPPCRALLPELRRASNLLYGQLKFGTLDCTVHEGLCNMYNIQAYPTTVVFNQSNIHEYEGHHSAEQILEFIEDLMNPSVVSLTPTTFNELVTQRKHNEVWMVDFYSPWCHPCQVLMPEWKRMARTLTGLINVGSIDCQQYHSFCAQENVQRYPEIRFFPPKSNKAYHYHSYNGWNRDAYSLRIWGLGFLPQVSTDLTPQTFSEKVLQGKNHWVIDFYAPWCGPCQNFAPEFELLARMIKGKVKAGKVDCQAYAQTCQKAGIRAYPTVKFYFYERAKRNFQEEQINTRDAKAIAALISEKLETLRNQGKRNKDEL
For B1, the “Total (total peptides)” value turned out to be 3 and the “Unique (unique peptides)” value is 3. Further, under setting [1], the “Total (peptides)” value is given as 1 and the “Unique (peptides)” value is reported as 1.

B2: ATP2B1 (protein, UniProt P20020 2-1220, looked up)
Plasma membrane …: GDMANNSVAYSGVKNSLKEANHDGDFGITLAELRALMELRSTDALRKIQESYGDVYGICTKLKTSPNEGLSGNPADLERREAVFGKNFIPPKKPKTFLQLVWEALQDVTLIILEIAAIVSLGLSFYQPPEGDNALCGEVSVGEEEGEGETGWIEGAAILLSVVCVVLVTAFNDWSKEKQFRGLQSRIEQEQKFTVIRGGQVIQIPVADITVGDIAQVKYGDLLPADGILIQGNDLKIDESSLTGESDHVKKSLDKDPLLLSGTHVMEGSGRMVVTAVGVNSQTGIIFTLLGAGGEEEEKKDEKKKEKKNKKQDGAIENRNKAKAQDGAAMEMQPLKSEEGGDGDEKDKKKANLPKKEKSVLQGKLTKLAVQIGKAGLLMSAITVIILVLYFVIDTFWVQKRPWLAECTPIYIQYFVKFFIIGVTVLVVAVPEGLPLAVTISLAYSVKKMMKDNNLVRHLDACETMGNATAICSDKTGTLTMNRMTVVQAYINEKHYKKVPEPEAIPPNILSYLVTGISVNCAYTSKILPPEKEGGLPRHVGNKTECALLGLLLDLKRDYQDVRNEIPEEALYKVYTFNSVRKSMSTVLKNSDGSYRIFSKGASEIILKKCFKILSANGEAKVFRPRDRDDIVKTVIEPMASEGLRTICLAFRDFPAGEPEPEWDNENDIVTGLTCIAVVGIEDPVRPEVPDAIKKCQRAGITVRMVTGDNINTARAIATKCGILHPGEDFLCLEGKDFNRRIRNEKGEIEQERIDKIWPKLRVLARSSPTDKHTLVKGIIDSTVSDQRQVVAVTGDGTNDGPALKKADVGFAMGIAGTDVAKEASDIILTDDNFTSIVKAVMWGRNVYDSISKFLQFQLTVNVVAVIVAFTGACITQDSPLKAVQMLWVNLIMDTLASLALATEPPTESLLLRKPYGRNKPLISRTMMKNILGHAFYQLVVVFTLLFAGEKFFDIDSGRNAPLHAPPSEHYTIVFNTFVLMQLFNEINARKIHGERNVFEGIFNNAIFCTIVLGTFVVQIIIVQFGGKPFSCSELSIEQWLWSIFLGMGTLLWGQLISTIPTSRLKFLKEAGHGTQKEEIPEEELAEDVEEIDHAERELRRGQILWFRGLNRIQTQIRVVNAFRSSLYEGLEKPESRSSIHNFMTHPEFRIEDSEPHIPLIDDTDAEDDAPTKRNSSPPPSPNKNNNAVDSGIHLTIEMNKSATSSSPGSPLHSLETSL
Turning to B2, the “Total (total peptides)” value is on record as 3 and the “Unique (unique peptides)” value was found to be 3.

B3: NT5DC2 (protein, UniProt Q9H857 1-520, looked up)
5'-nucleotidase …: MRVESGSAQERGILLESLSTLLEKTTASHEGRAPGNRELTDLLPPEVCSLLNPAAIYANNEISLRDVEVYGFDYDYTLAQYADALHPEIFSTARDILIEHYKYPEGIRKYDYNPSFAIRGLHYDIQKSLLMKIDAFHYVQLGTAYRGLQPVPDEEVIELYGGTQHIPLYQMSGFYGKGPSIKQFMDIFSLPEMALLSCVVDYFLGHSLEFDQAHLYKDVTDAIRDVHVKGLMYQWIEQDMEKYILRGDETFAVLSRLVAHGKQLFLITNSPFSFVDKGMRHMVGPDWRQLFDVVIVQADKPSFFTDRRKPFRKLDEKGSLQWDRITRLEKGKIYRQGNLFDFLRLTEWRGPRVLYFGDHLYSDLADLMLRHGWRTGAIIPELEREIRIINTEQYMHSLTWQQALTGLLERMQTYQDAESRQVLAAWMKERQELRCITKALFNAQFGSIFRTFHNPTYFSRRLVRFSDLYMASLSCLLNYRVDFTFYPRRTPLQHEAPLWMDQLCTGCMKTPFLGDMAHIR
As for B3, the “Total (total peptides)” value was 3 and the “Unique (unique peptides)” value is given as 3. Further, under setting [2], the “Total (peptides)” value was 9 and the “Unique (peptides)” value is reported as 9.

B4: MAGT1 (protein, UniProt Q9H0U3 30-335, looked up)
Dolichyl-diphosphooligosacchar …: QRKKEMVLSEKVSQLMEWTNKRPVIRMNGDKFRRLVKAPPRNYSVIVMFTALQLHRQCVVCKQADEEFQILANSWRYSSAFTNRIFFAMVDFDEGSDVFQMLNMNSAPTFINFPAKGKPKRGDTYELQVRGFSAEQIARWIADRTDVNIRVIRPPNYAGPLMLGLLLAVIGGLVYLRRSNMEFLFNKTGWAFAALCFVLAMTSGQMWNHIRGPPYAHKNPHTGHVNYIHGSSQAQFVAETHIVLLFNGGVTLGMVLLCEAATSDMDIGKRKIMCVAGIGLVVLFFSWMLSIFRSKYHGYPYSFLMS
As to B4, the “Total (total peptides)” value was 3 and the “Unique (unique peptides)” value stood at 3. Under setting [1], the “Total (peptides)” value was found to be 2 and the “Unique (peptides)” value worked out at 2.

B5: RARS2 (protein, UniProt Q5T160 17-578, looked up)
Probable arginine--tRNA …: LNLPPENLITSISAVPISQKEEVADFQLSVDSLLEKDNDHSRPDIQVQAKRLAEKLRCDTVVSEISTGQRTVNFKINRELLTKTVLQQVIEDGSKYGLKSELFSGLPQKKIVVEFSSPNVAKKFHVGHLRSTIIGNFIANLKEALGHQVIRINYLGDWGMQFGLLGTGFQLFGYEEKLQSNPLQHLFEVYVQVNKEAADDKSVAKAAQEFFQRLELGDVQALSLWQKFRDLSIEEYIRVYKRLGVYFDEYSGESFYREKSQEVLKLLESKGLLLKTIKGTAVVDLSGNGDPSSICTVMRSDGTSLYATRDLAAAIDRMDKYNFDTMIYVTDKGQKKHFQQVFQMLKIMGYDWAERCQHVPFGVVQGMKTRRGDVTFLEDVLNEIQLRMLQNMASIKTTKELKNPQETAERVGLAALIIQDFKGLLLSDYKFSWDRVFQSRGDTGVFLQYTHARLHSLEETFGCGYLNDFNTACLQEPQSVSILQHLLRFDEVLYKSSQDFQPRHIVSYLLTLSHLAAVAHKTLQIKDSPPEVAGARLHLFKAVRSVLANGMKLLGITPVCRM
In the case of B5, the “Total (total peptides)” value is 3 and the “Unique (unique peptides)” value was found to be 3. Also, under setting [2], the “Total (peptides)” value is 3 and the “Unique (peptides)” value came out at 3.

B6: MAIP1 (protein, UniProt Q8WWC4 97-291, looked up)
m-AAA protease-interacting …: STEEKPQQHQKTKMIVLGFSNPINWVRTRIKAFLIWAYFDKEFSITEFSEGAKQAFAHVSKLLSQCKFDLLEELVAKEVLHALKEKVTSLPDNHKNALAANIDEIVFTSTGDISIYYDEKGRKFVNILMCFWYLTSANIPSETLRGASVFQVKLGNQNVETKQLLSASYEFQREFTQGVKPDWTIARIEHSKLLE
Consider B6, for which the “Total (total peptides)” value was found to be 3 and the “Unique (unique peptides)” value came to 3. In addition, under setting [1], the “Total (peptides)” value was found to be 1 and the “Unique (peptides)” value turned out to be 1.

B7: NDC1 (protein, UniProt Q9BTX1 1-674, looked up)
Nucleoporin NDC1: MATAVSRPCAGRSRDILWRVLGWRIVASIVWSVLFLPICTTVFIIFSRIDLFHPIQWLSDSFSDLYSSYVIFYFLLLSVVIIIISIFNVEFYAVVPSIPCSRLALIGKIIHPQQLMHSFIHAAMGMVMAWCAAVITQGQYSFLVVPCTGTNSFGSPAAQTCLNEYHLFFLLTGAFMGYSYSLLYFVNNMNYLPFPIIQQYKFLRFRRSLLLLVKHSCVESLFLVRNFCILYYFLGYIPKAWISTAMNLHIDEQVHRPLDTVSGLLNLSLLYHVWLCGVFLLTTWYVSWILFKIYATEAHVFPVQPPFAEGSDECLPKVLNSNPPPIIKYLALQDLMLLSQYSPSRRQEVFSLSQPGGHPHNWTAISRECLNLLNGMTQKLILYQEAAATNGRVSSSYPVEPKKLNSPEETAFQTPKSSQMPRPSVPPLVKTSLFSSKLSTPDVVSPFGTPFGSSVMNRMAGIFDVNTCYGSPQSPQLIRRGPRLWTSASDQQMTEFSNPSPSTSISAEGKTMRQPSVIYSWIQNKREQIKNFLSKRVLIMYFFSKHPEASIQAVFSDAQMHIWALEGLSHLVAASFTEDRFGVVQTTLPAILNTLLTLQEAVDKYFKLPHASSKPPRISGSLVDTSYKTLRFAFRASLKTAIYRITTTFGEHLNAVQASAEHQKRLQQFLEFKE
As for B7, the “Total (total peptides)” value was 3 and the “Unique (unique peptides)” value was found to be 3.

B8: TMEM33 (protein, UniProt P57088 2-247, looked up)
Transmembrane protein 33: ADTTPNGPQGAGAVQFMMTNKLDTAMWLSRLFTVYCSALFVLPLLGLHEAASFYQRALLANALTSALRLHQRLPHFQLSRAFLAQALLEDSCHYLLYSLIFVNSYPVTMSIFPVLLFSLLHAATYTKKVLDARGSNSLPLLRSVLDKLSANQQNILKFIACNEIFLMPATVFMLFSGQGSLLQPFIYYRFLTLRYSSRRNPYCRTLFNELRIVVEHIIMKPACPLFVRRLCLQSIAFISRLAPTVP
Regarding B8, the “Total (total peptides)” value stood at 3 and the “Unique (unique peptides)” value came to 3. Besides, under setting [1], the “Total (peptides)” value is on record as 2 and the “Unique (peptides)” value was 2.
